Test results from doi:10.1101/2023.11.28.568985.
Results are given in words; binding and its absence hold for the method and conditions named. In cells and extracts the contact can be indirect. Some binding calls cover weakened binding; strength is not graded here.

Amino acid sequences for entries named in this document (tags omitted).
UniProt O43823: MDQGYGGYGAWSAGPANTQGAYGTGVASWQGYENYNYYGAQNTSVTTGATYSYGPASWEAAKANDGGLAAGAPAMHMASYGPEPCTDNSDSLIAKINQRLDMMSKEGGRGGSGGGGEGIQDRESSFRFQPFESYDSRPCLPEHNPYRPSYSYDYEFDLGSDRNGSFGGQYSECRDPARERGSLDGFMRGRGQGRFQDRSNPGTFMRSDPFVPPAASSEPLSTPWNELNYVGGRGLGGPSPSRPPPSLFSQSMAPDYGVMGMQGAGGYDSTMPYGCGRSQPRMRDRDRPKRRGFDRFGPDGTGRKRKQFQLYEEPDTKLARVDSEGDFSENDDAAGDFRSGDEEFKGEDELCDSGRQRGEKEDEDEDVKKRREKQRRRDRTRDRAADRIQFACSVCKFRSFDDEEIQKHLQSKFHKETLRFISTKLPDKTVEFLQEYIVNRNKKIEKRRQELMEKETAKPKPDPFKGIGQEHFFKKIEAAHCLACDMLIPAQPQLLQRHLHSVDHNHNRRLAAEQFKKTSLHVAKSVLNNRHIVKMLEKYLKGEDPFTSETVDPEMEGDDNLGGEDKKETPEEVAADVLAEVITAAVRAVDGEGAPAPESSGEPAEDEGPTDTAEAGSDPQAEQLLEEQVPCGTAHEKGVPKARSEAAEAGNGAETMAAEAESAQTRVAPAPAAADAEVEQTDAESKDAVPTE
UniProt P17844: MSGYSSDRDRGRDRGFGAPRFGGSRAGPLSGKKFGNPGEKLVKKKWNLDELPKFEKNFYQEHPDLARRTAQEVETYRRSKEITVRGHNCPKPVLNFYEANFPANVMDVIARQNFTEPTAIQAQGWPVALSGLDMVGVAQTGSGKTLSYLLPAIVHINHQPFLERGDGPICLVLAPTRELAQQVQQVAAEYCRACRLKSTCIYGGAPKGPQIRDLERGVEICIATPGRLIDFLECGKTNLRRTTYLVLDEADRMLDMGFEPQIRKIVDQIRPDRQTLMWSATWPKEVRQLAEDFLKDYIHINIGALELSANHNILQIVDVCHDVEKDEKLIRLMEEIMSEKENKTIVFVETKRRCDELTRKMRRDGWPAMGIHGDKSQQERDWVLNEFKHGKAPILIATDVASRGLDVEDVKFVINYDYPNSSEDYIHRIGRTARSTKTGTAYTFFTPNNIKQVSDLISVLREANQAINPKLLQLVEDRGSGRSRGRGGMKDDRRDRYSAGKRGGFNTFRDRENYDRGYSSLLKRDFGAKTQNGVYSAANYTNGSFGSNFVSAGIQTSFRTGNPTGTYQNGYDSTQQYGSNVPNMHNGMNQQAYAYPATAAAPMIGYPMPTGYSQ

Experiments:
[1] = molecular target: HA-AKAP8 (human) (UniProt O43823); experiment: co-IP
[2] = molecular target: GST-AKAP8 (human) (UniProt O43823); experiment: pull-down
[3] = molecular target: A-kinase-anchoring protein 8 (AKAP8), endogenous (human (endogenous in 293T)) (UniProt O43823); experiment: co-IP

Row | binding [1] | binding [2] | binding [3] | Substance
1 | binds | – | – | DDX5-FLAG (from UniProt P17844 1-614)
2 | – | binds | – | DDX5-His (from UniProt P17844 1-614)
3 | – | binds | binds | ATP-dependent DEAD box RNA helicase DDX5 (endogenous) (from UniProt P17844 1-614)
